Values of other authors in patent US20220264924A1, “METHODS AND COMPOSITIONS FOR IMPROVED TASTE QUALITY” (ALMENDRA PTE LTD, priority 2019, published 2022).
At least one compound was matched to its structure with a doubt left.

System: human subject (sensory testing)
Settings: R in Sucrose Equivalents of Sweetness; C in mg/L; hyperbolic R = Rm × C / (kd + C); cited from earlier work

C=C1C[C@@]23CC[C@H]4[C@@](C)(CCC[C@@]4(C)C(=O)O[C@@H]4O[C@H](CO)[C@@H](O)[C@H](O)[C@H]4O)[C@@H]2CC[C@]1(O[C@@H]1O[C@H](CO)[C@@H](O)[C@H](O[C@@H]2O[C@H](CO)[C@@H](O)[C@H](O)[C@H]2O)[C@H]1O[C@@H]1O[C@H](CO)[C@@H](O)[C@H](O)[C@H]1O)C3 [Rebaudioside A]
C/R Function: R = 10C/(200 + C)
